Measurements as given in paper PMC5004903.
These are yes or no findings as the source states them, for the method shown. In cells and extracts the contact can be indirect. A yes stands for co-enrichment or nearness to the bait. Other partners may have been found. No binding means not detected with the bait.

The chains behind the UniProt entries cited, without tags or fusion partners. Where a name states a change or a piece, a line headed by the entry shows the natural chain unless it says otherwise.
UniProt Q9Z248: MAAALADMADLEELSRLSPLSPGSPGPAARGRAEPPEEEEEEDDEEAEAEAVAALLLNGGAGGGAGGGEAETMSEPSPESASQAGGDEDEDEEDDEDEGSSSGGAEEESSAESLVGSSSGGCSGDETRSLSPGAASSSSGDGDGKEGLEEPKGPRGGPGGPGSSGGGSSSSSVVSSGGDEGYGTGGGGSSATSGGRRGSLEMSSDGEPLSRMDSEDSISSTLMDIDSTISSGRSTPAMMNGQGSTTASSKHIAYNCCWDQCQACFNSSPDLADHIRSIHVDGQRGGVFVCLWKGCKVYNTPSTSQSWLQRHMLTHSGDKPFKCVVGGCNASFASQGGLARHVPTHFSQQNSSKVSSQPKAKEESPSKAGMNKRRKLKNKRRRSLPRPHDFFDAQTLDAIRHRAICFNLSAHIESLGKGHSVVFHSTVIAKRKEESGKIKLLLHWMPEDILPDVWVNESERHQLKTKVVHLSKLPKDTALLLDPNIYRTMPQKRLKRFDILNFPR
UniProt Q02395: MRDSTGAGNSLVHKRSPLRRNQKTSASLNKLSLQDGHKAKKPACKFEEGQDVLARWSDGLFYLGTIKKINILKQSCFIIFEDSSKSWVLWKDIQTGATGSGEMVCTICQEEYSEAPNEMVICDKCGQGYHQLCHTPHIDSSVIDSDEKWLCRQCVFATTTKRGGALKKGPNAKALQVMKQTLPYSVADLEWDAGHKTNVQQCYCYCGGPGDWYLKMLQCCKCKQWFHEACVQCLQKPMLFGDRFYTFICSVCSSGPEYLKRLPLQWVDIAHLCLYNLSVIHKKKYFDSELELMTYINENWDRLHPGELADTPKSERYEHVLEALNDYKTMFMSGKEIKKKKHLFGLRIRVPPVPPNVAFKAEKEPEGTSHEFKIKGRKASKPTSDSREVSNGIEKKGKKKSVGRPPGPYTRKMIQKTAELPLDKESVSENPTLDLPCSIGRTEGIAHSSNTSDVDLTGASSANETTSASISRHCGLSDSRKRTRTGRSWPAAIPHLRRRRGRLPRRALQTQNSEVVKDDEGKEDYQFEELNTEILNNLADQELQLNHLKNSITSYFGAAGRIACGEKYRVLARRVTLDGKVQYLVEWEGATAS
UniProt Q9Z1B8: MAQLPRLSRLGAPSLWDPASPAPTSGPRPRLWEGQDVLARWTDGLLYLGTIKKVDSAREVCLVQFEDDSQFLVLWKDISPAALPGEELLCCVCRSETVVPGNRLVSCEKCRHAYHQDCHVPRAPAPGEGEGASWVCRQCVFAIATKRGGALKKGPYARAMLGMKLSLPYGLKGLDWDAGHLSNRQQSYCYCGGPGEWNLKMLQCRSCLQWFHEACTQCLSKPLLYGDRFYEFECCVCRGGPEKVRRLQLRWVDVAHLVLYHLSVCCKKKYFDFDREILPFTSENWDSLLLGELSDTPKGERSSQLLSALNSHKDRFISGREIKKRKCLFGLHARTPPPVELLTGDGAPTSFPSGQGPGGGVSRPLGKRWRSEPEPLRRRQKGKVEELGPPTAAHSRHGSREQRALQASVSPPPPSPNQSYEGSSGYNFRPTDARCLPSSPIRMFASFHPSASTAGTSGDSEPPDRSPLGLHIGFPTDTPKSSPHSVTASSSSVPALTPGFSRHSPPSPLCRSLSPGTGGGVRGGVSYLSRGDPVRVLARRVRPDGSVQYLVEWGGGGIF

B1: C17ORF96 homologue protein (endogenous) (protein, UniProt Q7TNS8 1-369)
chain: METLCPPPRLAVPASPRGSPCSPTPLKPRRGTPEFSPLCLRALAFCALAKPRPSSLGLGPGELAPRTPVLLGPPASPCTGGWAADGLKHLGGQAGRPSDVSSPAREDADVAVCPGGGEEEEGGGGFPHFGAGSCAPPGRCPAPLRPQDSPTNPAWSPPRPARGLDAASSPPLEPGSPPPSPPAGLSPEPAPSEQPVPASEAPGGGDPAPTAPEAPALSPSTADAAPDPPRDLRQEHFNRLIRRSKLWCYAKGFALDTPSLRRGPERPAAKARGAAKKRRRPAPPPPSVQPRRPVPTLPTSSTFSLLDCFPCPPALVVEENGDLGPASSLRLQGDAKPPPAHPLWKWQMGGPAVPEPPGLKSWWVNLEEL

These molecules were tested against Flag-2xStrepII-tagged (FS2) AEBP2 (mouse) (UniProt Q9Z248) (assay: affinity purification with mass spectrometry; FS2-AEBP2 complexes immunoprecipitated from nuclear cell extract of E14 mESCs in the presence of benzonase; LC-MS/MS; two independent immunoprecipitation experiments).

Row | binding | Molecule
1 | no binding | PCL2 (MTF2), endogenous (from UniProt Q02395 1-593)
2 | no binding | PCL1 (PHF1), endogenous (from UniProt Q9Z1B8 1-559)
3 | no binding | B1
